Results on one compound are retold here after PubChem BioAssay AID938 (National Center for Advancing Translational Sciences (NCATS), 2007).

SMILES strings stand for the structures. Out of some 73,000 compounds screened, about 1,800 (2.5%) were called active. Inconclusive results (about 13%) are left out. This is a selection; strong and weak results do not stand in their true shares. Where no call is shown, the source filed none.

The test can be described thus: qHTS Assay for Agonists of the Thyroid Stimulating Hormone Receptor: Activators of Intracellular cAMP Concentrations in Parental HEK 293. Note: % of control where 0% means no effect; nearly all actives have a fitted effect of over 55% in size. Particulars: parental HEK293 CNG cAMP sensor, membrane potential fluorescence; at 57.1 µM (top of the series; calls come from the whole dose curve). The source says:
NIH Chemical Genomics Center [NCGC]
NIH Molecular Libraries Screening Centers Network [MLSCN]
PI Name: Dr. Marvin Gershengorn
This cell based assay utilized a cyclic nucleotide gated ion channel (CNG) as a biosensor for cAMP induction. HEK 293 cells stably expressing the modified CNG were purchased from BD biosciences (http://www.atto.com/products/actone/features_benefits.shtml) . Stimulation of cAMP production causes the CNG to open and subsequent membrane depolarization to occur. A fluorescent membrane potential dye (BD biosciences) was utilized to detect cAMP stimulation in cells.
The cells were maintained in DMEM medium (Invitrogen) containing 10 % FBS (Hyclone), 100 units/ml Penicillin, 100 ug/ml Streptomycin (Invitrogen), and 250 ug/ml Geneticin (Invitrogen) and 1 ug/ml Puromycin (Invitrogen) at 37C in 5% CO2. […]
High Throughput Screening. […] 23 nl/well compound or control was then added to the assay plates, which were incubated for additional 30 min before reading a Envision fluorescence plate reader (Perkin Elmer) in bottom-read mode for fluorescence intensity (emission at 590 nm).
Keywords: cAMP, CNG Ion Channel, quantitative high throughput screening, qHTS, HTS, probe identification, CNG, cAMP, cyclic nucleotide gated ion channel PubChem
(In qHTS, concentration-response curves come from the screen itself.)
Consider `COc1cc2c(cc1OC)C(C(=O)N1CCC3(CC1)OCCO3)C(c1ccccc1F)N(C)C2=O` (stereo unspecified), for which the activation is 108%.
